The assay can be described thus: qHTS Assay for Lipid Storage Modulators in Drosophila S3 Cells.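 For cell number change: cells counted by Cell Tracker Red CMTPX staining in the red channel.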 The following applies: BODIPY lipid droplet fluorescence, 18-24 h; for cell number change: measured here: cell count max response, cells fed with added oleic acid. The method in brief: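 Drosophila S3 cells got compounds at several concentrations plus oleic acid (400 uM solution). Laser-scanning cytometry with 488 nm excitation read lipid droplets at 500-530 nm and cells at 575-640 nm. Percent activity was relative to 20 uM Triacsin C.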
A general note: qHTS replaces the single test concentration by a dilution series.

The mark [1] stands for this setting: measured here: lipid fluorescence (Fed channel) AC50, cells fed with added oleic acid.
Setting [2] is: measured here: cell number channel AC50, cells fed with added oleic acid.

Each structure is given as a SMILES string. Some of the results follow. Further columns of the screen follow, without active or inactive calls. Most of these compounds were active or inconclusive in the main read-out, so they are no random draw. The note in brackets gives the kind of curve behind each potency; many fits are weak.

For orientation: AC50 means the concentration giving half of the maximal activity seen. A low value points to greater potency.

As to `CCOC(=O)c1cc(CC)sc1NC(=O)c1ccc([N+](=O)[O-])c(N2CCOCC2)c1`, the cell number change was determined as 12.8%. Take `Cc1ccc(NC2CCCCC2NS(=O)(=O)c2ccccc2)c(C)c1` (stereo unspecified): the AC50 under setting [1] was 29.1 µM [falling, single point]. For `Cc1ccc(S(=O)(=O)NCC(=O)N(CC(=O)NCC2CCCO2)Cc2ccccc2)cc1` (stereo unspecified), the cell number change stood at 15.5%.

Consider `O=C(CCCn1c(=S)[nH]c2ccccc2c1=O)NC1CCCCC1`, for which the cell number change was -20.9%. For the same compound, the concentration at half-maximal activity (AC50) under setting [1] was 29.1 µM [rising, single point].

As for `Cc1c(NC(=O)COc2cccc(Cl)c2Cl)c(=O)n(-c2ccccc2)n1C`, the cell number change is 28.3%.

Turning to `COc1cccc(CC(=O)N2CCN(c3ccccc3[N+](=O)[O-])CC2)c1`, the AC50 is, setting by setting: under setting [2], 0.164 µM [rising, full curve, poor fit]; under setting [1], 0.116 µM [rising, full curve, poor fit].

Take `CCN(C(=O)c1cn(C)c(=O)c2cc(OC)c(OC)cc12)c1cc(OC)ccc1OC`: the cell number change was -10.7%. Besides, under setting [1], the AC50 is 0.116 µM [falling, full curve, poor fit]. Take `CC(C)NS(=O)(=O)c1ccc(CCC(=O)Nc2cc(Cl)ccc2Oc2ccccc2)cc1`: under setting [1], the AC50 is 6.51 µM [falling, single point]. Regarding `Nc1nonc1C(=O)N/N=C/c1ccc(-c2ccc(Cl)c(C(=O)O)c2)o1`, the cell number change is -73.4%. The AC50 under setting [2] was 29.1 µM [falling, single point]. For the compound `CC(=O)c1ccccc1NC(=O)COC(=O)/C=C/c1ccc(OC(F)F)cc1`, the cell number change was -8.01%. Besides, under setting [2], the concentration at half-maximal activity (AC50) is 4.11 µM [falling, single point]. For the compound `CC(C)c1ccccc1OCCNC(=S)NC(=O)c1cccnc1`, the cell number change was -18%. Further, the AC50 under setting [1] is 29.1 µM [falling, single point]. Consider `Cc1ccc(NC(=O)CN2C(=O)S/C(=C\C(=O)Nc3ccc(Cl)cc3)C2=O)cc1`, for which the cell number change is -52.9%. In addition, under setting [2], the half-maximal activity concentration (AC50) is 29.1 µM [falling, single point]. For `CC(=O)Nc1cc2c(s1)c1cnn(Cc3ccccc3F)c(=O)c1n2C`, the cell number change came out at 49.6%. Further, the AC50 under setting [2] is 25.9 µM [rising, single point]. Turning to `CC1CCCCC1NC(=O)CO/N=C/c1ccccc1OC(F)F` (stereo unspecified), the AC50 under setting [1] is 5.17 µM [falling, partial curve]. For the compound `Cc1cccn2c(=O)nc(SCC(=O)N3CCC(Cc4ccccc4)CC3)nc12`, the cell number change was found to be 37.7%. Besides, the half-maximal activity concentration (AC50) under setting [2] is 2.06 µM [rising, full curve, poor fit]. For the same compound, the AC50 under setting [1] was 1.84 µM [rising, partial curve]. For the compound `C=CCn1c(N)c(C(=O)Nc2cccc(C)c2)c2nc3ccccc3nc21`, the cell number change was -46.2%. For the same compound, under setting [2], the AC50 was 25.9 µM [falling, single point]. Under setting [1], the concentration at half-maximal activity (AC50) is 20.6 µM [falling, single point].

On to `O=C(/C=C\Nc1ccccn1)c1ccccc1`, for which the cell number change was determined as 43.4%. Under setting [2], the AC50 is 18.4 µM [rising, single point]. For `CCN(C(=O)Cc1ccc(Br)cc1)C1CCCCC1`, the cell number change was -60.8%. For the same compound, the AC50 under setting [2] was 32.6 µM [falling, single point]. Besides, the AC50 under setting [1] is 0.731 µM [falling, single point].

In the case of `COc1ccc(NC(=O)COC(=O)c2cccc(S(=O)(=O)N(C)C)c2)cc1`, the AC50 under setting [1] was 0.58 µM [falling, single point]. For `COC(=O)c1cn(C(=O)c2ccc(C)cc2)c2ccccc12`, the cell number change was -1.5%. For the compound `C=CCCC(=O)Nc1nc(C)c(-c2csc(Nc3cc(Cl)ccc3OC)n2)s1`, the cell number change is -0.176%. In addition, the AC50 under setting [1] is 5.17 µM [falling, partial curve]. With `C=CCn1c(Sc2ncc([N+](=O)[O-])s2)n[nH]c1=O`, the cell number change was -72.7%. The AC50 under setting [2] was 3.26 µM [falling, full curve]. Moreover, under setting [1], the AC50 is 4.61 µM [falling, full curve]. Consider `COc1cc([N+](=O)[O-])ccc1NC(=O)Cc1ccc(C)cc1`, for which the cell number change turned out to be 4.44%. Moreover, the AC50 under setting [2] was 0.501 µM [rising, full curve, poor fit]. For the same compound, the AC50 under setting [1] was 0.794 µM [rising, full curve, poor fit].

With `CCC(=O)NCCCCCCNC(=O)CC`, the cell number change was -33.4%. In addition, the AC50 under setting [2] is 5.8 µM [falling, full curve]. In addition, under setting [1], the AC50 was 3.66 µM [falling, full curve]. With `COc1cc2c(cc1OC)C(=S)NC1(CCCC1)C2`, the AC50 under setting [1] is 0.92 µM [rising, full curve, poor fit]. As to `CN1C(=O)C2(OCC(COc3ccc(Cl)cc3)O2)c2ccccc21` (stereo unspecified), the cell number change is -0.364%.

Regarding `COC(=O)CSc1ccc(S(=O)(=O)N2CCC(C)CC2)cc1[N+](=O)[O-]`, the cell number change is -8.29%. Moreover, the AC50 under setting [1] was 5.8 µM [rising, single point]. `O=C(COC(=O)C1=COCCO1)NCc1ccc(Cl)cc1`: the cell number change came to 57.3%. Further, the AC50 under setting [2] was 6.51 µM [rising, full curve]. For the same compound, the AC50 under setting [1] was 2.59 µM [rising, full curve].

With `Cc1ccc(/C(N)=N/OC(=O)/C=C/c2ccccc2)cc1`, the cell number change worked out at 162%. `COC(=O)c1ccc2c(=O)n(CC3CCCO3)c(SCC(=O)Nc3ccccc3Cl)nc2c1` (stereo unspecified): the AC50 is 1.46 µM [rising, partial curve] under setting [2] and 1.46 µM [rising, partial curve] under setting [1]. Regarding `Cc1nn(C)c2ncc(C(=O)c3cc(F)ccc3O)cc12`, the cell number change worked out at 5.88%. Moreover, the AC50 under setting [1] was 0.184 µM [falling, full curve].

`O=C(CCCCCn1c(=S)[nH]c2cc3c(cc2c1=O)OCO3)N1CCN(c2ccccc2)CC1`: the cell number change was -14.9%.

In the case of `COc1ccc([N+](=O)[O-])c(S(=O)(=O)c2ccccc2)n1`, the cell number change was -66.9%. In addition, the AC50 under setting [2] was 25.9 µM [falling, partial curve]. The AC50 under setting [1] is 20.6 µM [falling, partial curve]. Take `O=C(CCNC(=O)c1ccc([N+](=O)[O-])cc1)Nc1ccccc1N1CCCCC1`: the cell number change is -7.47%. Moreover, the AC50 under setting [1] is 6.51 µM [falling, partial curve]. In the case of `CCc1ccccc1OCC(=O)OCC(=O)Nc1cc(C)on1`, the cell number change came to 0.669%. The AC50 under setting [1] is 16.4 µM [falling, single point]. `COC(=O)c1ccc(NC(=S)N2CCN(Cc3ccccc3OC)CC2)cc1`: the cell number change worked out at 4%.

With `O=C1C2CCCN2C(=S)N1c1cc(Cl)ccc1Cl` (stereo unspecified), the cell number change is -10.4%. Further, the AC50 under setting [1] is 29.1 µM [rising, single point].

For `COc1ccc(-n2nnc3c(=O)n(Cc4cccc(C)c4)cnc32)cc1`, the AC50 under setting [1] was 0.13 µM [rising, full curve, poor fit]. For `COc1ccc(C2CCCCCN2Cc2nc3ccccc3c(=O)n2CC(N)=O)cc1` (stereo unspecified), the cell number change was determined as 27.1%. Besides, the AC50 under setting [2] is 0.206 µM [rising, full curve, poor fit]. Also, the AC50 under setting [1] is 0.651 µM [rising, single point]. As for `c1ccc(-c2ccccc2OCCOCCN2CCOCC2)cc1`, the cell number change was -26.8%.

With `O=C(Cn1ccc([N+](=O)[O-])n1)Nc1nc2ccccc2s1`, the cell number change is -2.3%. For the same compound, the AC50 under setting [1] was 2.59 µM [falling, partial curve]. Consider `CC(CNC(=O)c1ccc(-c2ccccc2)cc1)CN(C)C` (stereo unspecified), for which the cell number change came out at 6.22%. Further, the AC50 under setting [1] is 0.13 µM [falling, full curve, poor fit]. In the case of `CCN(c1ccccc1)S(=O)(=O)c1cc2c(cc1C)n(C)c(=O)c(=O)n2C`, under setting [1], the AC50 was 10.3 µM [falling, partial curve].

For `CC1(C)CC(=O)C(C=Nc2ccccc2Sc2ccccc2)=C(O)C1`, the cell number change is -2.25%. In addition, the AC50 under setting [2] was 5.8 µM [falling, single point]. For `CC(=O)c1cc(CN2CCN(CCc3ccccc3)C(CCO)C2)cs1` (stereo unspecified), the cell number change came to 16.8%. Besides, the half-maximal activity concentration (AC50) under setting [1] was 1.3 µM [falling, full curve]. With `COc1ccc(C(=O)Nc2nc(CC(=O)NCCc3cccc(OC)c3)cs2)cc1`, the AC50 under setting [2] was 0.517 µM [rising, full curve, poor fit]. Regarding `CCN(CC)S(=O)(=O)c1ccc(N2CCOCC2)c(NS(=O)(=O)c2ccc(C)cc2)c1`, the cell number change was -75.3%. Also, the AC50 under setting [2] is 2.06 µM [falling, full curve]. Also, the AC50 under setting [1] is 1.84 µM [falling, full curve].

For `Cc1ccc([N+](=O)[O-])c(OCCn2cnc3ccccc32)c1`, the cell number change amounted to 63.1%. The concentration at half-maximal activity (AC50) under setting [1] is 29.1 µM [rising, single point]. With `CCOC(=O)N1CCC(NC(=O)c2ccc3c(=O)n4c(nc3c2)CCCC4)CC1`, under setting [1], the AC50 is 32.6 µM [falling, partial curve, poor fit]. Turning to `CC1CCN(C(=S)NC2CC3CCC2C3)CC1` (stereo unspecified), the cell number change turned out to be 8.18%. For `CC(C)CN(CC(C)C)CC(O)CN(c1ccccc1)S(=O)(=O)c1ccccc1[N+](=O)[O-]` (stereo unspecified), the cell number change came to 13.8%. Also, the AC50 under setting [1] is 29.1 µM [rising, single point]. For the compound `NC(=O)c1nsc(C(=O)N(Cc2ccccc2F)C(C(=O)NCC2CCCO2)c2ccc(F)cc2)c1N` (stereo unspecified), the cell number change was 25.7%. Further, the AC50 under setting [1] is 29.1 µM [falling, single point].

Turning to `COc1cc(/C=N/NC(=O)NC2CCCCC2)ccc1O`, the cell number change is -31.7%. The AC50 under setting [2] is 1.64 µM [falling, partial curve]. Besides, the AC50 under setting [1] is 6.51 µM [rising, single point]. In the case of `Cc1ccccc1NS(=O)(=O)c1ccc2c3c(cccc13)C(=O)N2C`, the cell number change is -63.9%. Further, under setting [2], the AC50 is 29.1 µM [falling, single point]. The AC50 under setting [1] is 29.1 µM [falling, single point]. In the case of `O=C(Nc1ccc(-c2nc3ccccc3[nH]2)cc1)c1ccco1`, under setting [2], the AC50 was 6.51 µM [rising, partial curve].

With `CCCCOc1ccc(C(=O)NCC(=O)N2CC(C)OC(C)C2)cc1` (stereo unspecified), the cell number change is -22.6%. Moreover, the AC50 under setting [1] was 1.16 µM [falling, full curve]. For `O=C(Cn1c(=O)oc2cccnc21)Nc1ccc(C(F)(F)F)cc1`, the cell number change is -3.02%. The AC50 under setting [1] is 1.16 µM [falling, single point]. For `O=C(c1ccc(Cl)cc1)c1ccccc1C(=O)N1CCOCC1`, the cell number change was -4.5%. On to `O=C(CN(C(=O)c1ccco1)c1cccc(F)c1)NCc1ccc(F)cc1`, for which the cell number change stood at 1.99%. For the same compound, the AC50 under setting [1] was 0.116 µM [falling, full curve, poor fit]. Regarding `CCCC(=O)N=c1sc2cccc(F)c2n1C`, the AC50 under setting [2] is 6.51 µM [rising, single point] and the AC50 under setting [1] was 2.91 µM [rising, partial curve].

For the origin of these results see PubChem BioAssay AID2685 (National Center for Advancing Translational Sciences (NCATS), 2010).
